Measurements from “University of Dundee, Small-Polar-MMV Screening Library” (2021), ChEMBL document CHEMBL3988442.

Amino acid sequences for entries named in this document (tags omitted).
UniProt P9WNZ1, whole entry: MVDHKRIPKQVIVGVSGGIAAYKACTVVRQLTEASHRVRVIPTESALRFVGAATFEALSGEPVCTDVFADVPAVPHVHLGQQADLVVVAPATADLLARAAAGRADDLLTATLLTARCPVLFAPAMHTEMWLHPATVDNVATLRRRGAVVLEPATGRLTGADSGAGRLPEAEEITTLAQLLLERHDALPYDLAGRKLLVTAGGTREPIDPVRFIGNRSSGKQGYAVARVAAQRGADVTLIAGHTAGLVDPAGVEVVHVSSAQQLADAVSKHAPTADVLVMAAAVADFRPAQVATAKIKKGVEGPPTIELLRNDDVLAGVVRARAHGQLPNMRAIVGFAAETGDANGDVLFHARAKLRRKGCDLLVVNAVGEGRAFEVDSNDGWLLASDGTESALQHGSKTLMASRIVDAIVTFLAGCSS

A: 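Assay of Toxoplasma gondii numbers, read through their beta-galactosidase reporter with a colour substrate. Compounds at 10 µM. Higher reads as fewer parasites (inferred from which compounds were picked for retests). Of about 67,000 compounds tested this way, about 260 (0.38%) reached 50% or more in at least one test.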
B: 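Coenzyme A biosynthesis protein CoaBC, Mycobacterium tuberculosis (UniProt P9WNZ1). Enzyme assay of CoaBC with a phosphate dye (Biomol Green) read at 650 nm. Tested at 30 µM. Direction is inferred from only a few compounds that gave an IC50; most scored high, so higher reads as stronger inhibition. Most strong results did not repeat in a second test. Size under these conditions: about 67,000 compounds, about 40 of them at 50% or above in at least one test.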

The filed quantity is “Percent Effect” (%).
How 0% and 100% were set is not recorded. Most values in the screen are low, and negative values occur.
The compounds are a random part of those screened.
A dash means the value is not listed here; it may have been measured.

structure,A,B
O=C(C1SCCc2sccc21)N1CC(O)C1 (stereo not given),-3.912,11.11
O=C(Nc1cnn(CCN2CCOCC2)c1)c1ccccc1O,-6.634,2.926
CCn1c(C2CCCN(C(=O)C(C)(C)OC)C2)nn(CCN(C)C)c1=O (stereo not given),-2.352,5.911
COC[C@]1(O)CCN(C(=O)c2ccc(CN(C)C)o2)CC1(C)C,5.21,5.492
CCO[C@@H]1CC[C@H]2[C@H]1OCCN2C(=O)c1ccc(C)o1,-,2.397
Cc1nc(CN2C(=O)COC3(CCN(CC4CC4)CC3)C2C)cs1 (stereo not given),-,6.3
Cn1nc(C(=O)NCc2ccc(OC3CCCCC3)nc2)ccc1=O,7.771,7.818
Cc1ccc(CNC(=O)NCCCO)cc1,2.711,2.672
NC(=O)CC1CCN(C(=O)CCOc2ccc(Cl)cc2)CC1,-23.01,-2.66
Cc1cccc(N2CCCC2c2nc(C)ncc2CN(C)C)n1 (stereo not given),2.713,4.196
c1ccc2c(c1)N(CC1CCOC1)CC21CCN(c2cnccn2)CC1 (stereo not given),-,10.62
O=C(O)C(F)(F)F.O=C(O)C(F)(F)F.O=C1CC2(CCN(Cc3ccncc3)C2)CN1c1cccc(F)c1 (stereo not given),10.18,-
O=C(Nc1cnc2n1CCCC2)c1cccc(-n2cnnc2)c1,1.145,7.341
CC1c2ncc(Cn3cccn3)n2CCN1S(=O)(=O)C1CC1 (stereo not given),-24.31,3.589
[H][C@]12CN(c3cc(C#N)ccn3)CC[C@@]1(O)CCN(S(=O)(=O)N(C)C)C2,11,-
COCc1cc(N(C)Cc2c(C)nn(C)c2C)n2nccc2n1,5.771,-0.7673
CNc1ccnc(N2C[C@@H](C)[C@](O)(C3CC3)C2)n1,6.198,2.657
CC(C)c1nccn1CC1CCCN1Cc1nc2ccccc2n1C (stereo not given),-30.85,5.109
CC(NC(=O)CCn1cccn1)c1ccc(-n2ccnn2)cc1 (stereo not given),1.949,-2.804
CCc1nn(-c2cc(Oc3ccccc3)nc(C)n2)c(N)c1C#N,-26.09,-5.145
CC(C)(C)c1n[nH]c(C2CN(C(=O)CCC3CC3)CCO2)n1 (stereo not given),-10.3,6.736
O=C(NCCn1ccnc1)NCC(c1ccco1)N1CCCCC1 (stereo not given),-36.33,5.641
[H][C@]12CC[C@@H](N(C)c3ccc(C)nn3)[C@@]1([H])CN(C(=O)Cc1cccs1)C2,5.426,-
Cl.O=C(NCCO)C1(Cc2ccccc2-c2cccnc2)CCOCC1,12.61,-
O=C(NCCNS(=O)(=O)c1cc(F)cc(F)c1)c1ccoc1,-8.824,-1.373
COCC(=O)N1CC(C(=O)NCC2CC2)C2(CCOCC2)C1 (stereo not given),7.225,1.98
COc1cccc(-c2noc(C3CCN(Cc4cn(C)nc4C)C3)n2)c1 (stereo not given),-42.57,-0.3927
COc1cc(C(=O)N2CCCC(c3cc(C)[nH]n3)C2)ccc1C (stereo not given),15.32,-2.91
CC(NC(=O)NCCC1=CCCCC1)c1nncn1C (stereo not given),9.73,7.233
CC(C)C(NCc1ccc(Cn2cncn2)cc1)c1ccccc1 (stereo not given),8.913,-2.479
CC(C)(CO)Nc1c(NCc2ccncc2)c(=O)c1=O,7.375,1.519
Cc1nc(N2CCCN(c3ncccn3)CC2)c2cnn(C)c2n1,-18.94,5.411
Cc1nn(C)c2cnn(CC(=O)NCCc3ccccc3)c12,-2.271,-0.6729
CC(C)N1CCN(S(=O)(=O)c2ncn(C)c2Cl)CC1,-2.781,4.808
CCn1cnnc1CNC(=O)N(C)Cc1ccc2c(c1)OCCO2,-2.24,2.254
CCC(C)NC(=O)CCNC(=O)c1c[nH]cc1-c1cccc(OC)c1 (stereo not given),-4.215,4.234
Cn1cc(CN2CCOC(c3cccc(-c4cncnc4)n3)C2)cn1 (stereo not given),-,-3.148
Cc1nnc2n1CCN(Cc1ncc(-c3ccc(F)cc3)o1)C2,12.69,4.183
COCCNC(=O)CCn1ncc2c(Cl)cccc21,15.56,-2.771
CCC(C(=O)NCc1nc(C)cc(C(F)(F)F)n1)n1cccn1 (stereo not given),2.037,7.12
O=C(O)c1cc(S(=O)(=O)Nc2cc(F)ccc2F)cc2c1OCCO2,-4.708,9.182
O[C@@H]1CN(Cc2cnccn2)C[C@H]1Oc1ccccc1,-2.588,7.787
COC[C@H]1CC[C@@H]2[C@@H](CCN2Cc2ccco2)O1,-,1.454
CC1=C[C@@H](CC#N)[C@H](C(C)C)C[C@H]1CC(=O)N1CCN(CCO)CC1,17.94,0.6772
Cc1ccc(-c2cc(N)c(=O)n(C(C)C(=O)NC(C)C)n2)o1 (stereo not given),-31.98,-1.598
CCn1c(=O)nc2n1C(=O)N(c1cccc(Cl)c1)C2,-2.63,-3.903
CC(NC(=O)CSCC(N)=O)c1ccccc1Oc1ccccc1 (stereo not given),-2.386,8.171
COc1cc(I)c(Cl)cc1C(=O)N(C)C,2.458,0.2532
COCc1ccccc1C(=O)N1CCN(C2=NCC(C)(C)S2)CC1,-0.5882,5.697
COCc1cc(CC2(NC3CCN(C)CC3)COC2)no1,-3.202,-0.6452
O=C(O)CC(O)(CC(=O)O)C(=O)O.OC1CCCN(Cc2ccnc(-c3cccnc3)n2)C1 (stereo not given),5.25,-
CC(C)Cc1cc(C(=O)NC(C)C)[nH]n1,2.661,0.8424
OC[C@@H](O)CN(CCC(F)(F)F)c1ncc(Cl)cn1,0.3601,2.419
Cc1ccc(C(=O)Nc2cn[nH]c2)cc1F,20.33,2.915
Cc1ncc(CN2Cc3ccccc3O[C@]3(CC[C@H](CO)CC3)C2)cn1,-,-1.667
Cn1ccc(CN2CCCC23CCN(Cc2cccc(F)c2)CC3)n1.O=C(O)C(F)(F)F.O=C(O)C(F)(F)F,-2.362,-
O=C(Nc1ccccn1)N(CCO)Cc1ccsc1,-8.045,-5.585
Cc1ccc(CNS(=O)(=O)CCCC#N)cc1F,16.04,1.294
CCc1ccc(C2CCCN2C(=O)Cc2ccc(NC(C)=O)cc2)o1 (stereo not given),-7.537,2.558
CN1CC(=O)N(c2cnn(C)c2)CC12CCN(Cc1cccs1)C2 (stereo not given),-,-4.069
N#Cc1cccc(CNCCNC(=O)Cc2cccc(F)c2)c1,18.61,0.6452
[H][C@@]12CC[C@@](O)(c3ccc(C)cn3)[C@]1([H])CN(Cc1ccc(Cl)cc1Cl)C2,8.934,-
CS(=O)(=O)c1cc(Cl)cnc1C1CCCN(C(=O)C2CCOCC2)C1 (stereo not given),1.221,3.589
O=C(c1nccc2ccccc12)N(Cc1ccco1)CC1CCCO1 (stereo not given),2.051,-1.071
CC(=O)NCCNC(=O)NCCCc1cccc(F)c1,4.661,-1.873
Cc1noc(C)c1CN1C[C@@H]2C[C@H](C(=O)NCC3CC3)N(C)[C@@H]2C1,-,4
Cc1nc(N(C)C/C=C/c2ccccc2)c2cnn(C)c2n1,13.27,10.06
CC(=O)NC[C@@]1(COc2cnccn2)C[C@@H](O)[C@@H](O)C1,-,0.5894
CC(=O)N1CCCC(Cc2cnc(-c3c(C)nn(C)c3C)cn2)C1 (stereo not given),11.05,1.166
[H][C@@]12CS(=O)(=O)C[C@]1([H])N(C(=O)c1cc(C(F)(F)F)n[nH]1)CCN2CC,-4.508,-
O=C(Nc1nncs1)N1CCC(c2ccc(O)cc2)CC1,13.07,1.816
O=C(c1ccncc1)N1C[C@@H]2CC[C@H](C1)N(S(=O)(=O)c1cccnc1)C2,-,2.427
[H][C@@]12CCN(C(C)=O)C[C@]1([H])OCCN(c1ccsc1)C2=O,-1.973,-
O=C(Cn1cnnn1)Nc1ccc(F)cc1OCC1CC1,29.67,2.689
O=C(CS(=O)(=O)Cc1cc(Cl)c2c(c1)OCCCO2)NCC1CC1,9.201,-0.2625
O=C(NCCc1ccccc1)NCC(O)c1cccs1 (stereo not given),-18.85,2.299
CCN(C(c1cccnc1)c1ccc(F)cc1F)S(C)(=O)=O (stereo not given),3.717,5.835
CCn1cc(CN2CCCC(CO)(CCc3ccccc3)C2)c(C)n1 (stereo not given),-0.3721,2.203
NS(=O)(=O)CCN1CCN(c2ccccc2O)CC1,-10.49,-1.434
C[C@H]1C(=O)NC[C@H]2CN(Cc3cccc(F)c3)C[C@H]21,-,5.647
Cc1noc(C)c1CN1CC[C@H]2OCC[C@@]2(C(=O)N2CCCC2)C1,-,-0.2028
Cc1noc(CN(CCO)Cc2cc(Br)ccc2F)n1,4.818,-8.285
CNc1cc(C2CCCN(C(=O)c3ccc(=O)[nH]n3)C2)ccn1 (stereo not given),11.43,6.294

The first 7 entries again:

{"structure": "O=C(C1SCCc2sccc21)N1CC(O)C1", "stereo": "stereo not given", "A": -3.912, "B": 11.11}
{"structure": "O=C(Nc1cnn(CCN2CCOCC2)c1)c1ccccc1O", "A": -6.634, "B": 2.926}
{"structure": "CCn1c(C2CCCN(C(=O)C(C)(C)OC)C2)nn(CCN(C)C)c1=O", "stereo": "stereo not given", "A": -2.352, "B": 5.911}
{"structure": "COC[C@]1(O)CCN(C(=O)c2ccc(CN(C)C)o2)CC1(C)C", "A": 5.21, "B": 5.492}
{"structure": "CCO[C@@H]1CC[C@H]2[C@H]1OCCN2C(=O)c1ccc(C)o1", "B": 2.397}
{"structure": "Cc1nc(CN2C(=O)COC3(CCN(CC4CC4)CC3)C2C)cs1", "stereo": "stereo not given", "B": 6.3}
{"structure": "Cn1nc(C(=O)NCc2ccc(OC3CCCCC3)nc2)ccc1=O", "A": 7.771, "B": 7.818}